From paper doi:10.1101/586461 (bioRxiv, 2019) come the findings set out here.

By UniProt entry, the sequences of proteins in these tests, tags left out. Where a name states a change or a piece, a line headed by the entry shows the natural chain unless it says otherwise.
UniProt Q8IPW2: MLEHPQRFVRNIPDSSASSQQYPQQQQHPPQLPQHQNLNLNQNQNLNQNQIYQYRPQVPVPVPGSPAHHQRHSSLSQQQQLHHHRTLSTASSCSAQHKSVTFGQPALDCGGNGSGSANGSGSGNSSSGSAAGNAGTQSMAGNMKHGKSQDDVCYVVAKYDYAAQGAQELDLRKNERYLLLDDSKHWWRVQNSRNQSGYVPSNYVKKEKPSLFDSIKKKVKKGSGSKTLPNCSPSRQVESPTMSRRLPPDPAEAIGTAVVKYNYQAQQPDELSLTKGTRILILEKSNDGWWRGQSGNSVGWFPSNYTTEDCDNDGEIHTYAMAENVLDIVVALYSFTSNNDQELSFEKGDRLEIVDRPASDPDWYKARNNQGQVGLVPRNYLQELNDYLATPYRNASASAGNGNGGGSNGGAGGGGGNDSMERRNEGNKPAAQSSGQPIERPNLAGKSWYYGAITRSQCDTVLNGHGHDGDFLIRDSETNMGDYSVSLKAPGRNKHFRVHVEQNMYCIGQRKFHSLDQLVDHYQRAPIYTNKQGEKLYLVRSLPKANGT
UniProt Q08012: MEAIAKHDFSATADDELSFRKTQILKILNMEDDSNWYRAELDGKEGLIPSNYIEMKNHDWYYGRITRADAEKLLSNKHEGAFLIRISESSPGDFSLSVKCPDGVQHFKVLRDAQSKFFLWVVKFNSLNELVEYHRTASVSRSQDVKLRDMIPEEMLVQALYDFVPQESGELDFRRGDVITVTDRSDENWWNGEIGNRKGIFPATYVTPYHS
UniProt Q7KUD2: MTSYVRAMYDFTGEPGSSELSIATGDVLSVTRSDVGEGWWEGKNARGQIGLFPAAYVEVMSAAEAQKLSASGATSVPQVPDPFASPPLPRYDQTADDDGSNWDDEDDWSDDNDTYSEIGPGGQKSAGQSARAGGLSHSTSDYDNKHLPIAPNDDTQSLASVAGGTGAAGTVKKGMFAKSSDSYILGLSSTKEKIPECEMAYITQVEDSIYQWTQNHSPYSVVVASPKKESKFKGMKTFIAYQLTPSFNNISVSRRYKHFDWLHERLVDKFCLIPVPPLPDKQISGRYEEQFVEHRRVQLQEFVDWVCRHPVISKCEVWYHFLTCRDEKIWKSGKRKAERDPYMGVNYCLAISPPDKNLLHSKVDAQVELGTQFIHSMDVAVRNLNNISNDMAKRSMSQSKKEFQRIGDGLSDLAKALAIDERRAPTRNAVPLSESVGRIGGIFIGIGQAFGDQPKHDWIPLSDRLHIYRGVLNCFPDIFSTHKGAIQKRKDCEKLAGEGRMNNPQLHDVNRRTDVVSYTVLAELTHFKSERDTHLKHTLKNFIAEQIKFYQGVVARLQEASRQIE

For the assay, the target named is T1, Drosophila dynamin Shibire (Shi), wild type (Drosophila) (UniProt P27619).
T1 sequence: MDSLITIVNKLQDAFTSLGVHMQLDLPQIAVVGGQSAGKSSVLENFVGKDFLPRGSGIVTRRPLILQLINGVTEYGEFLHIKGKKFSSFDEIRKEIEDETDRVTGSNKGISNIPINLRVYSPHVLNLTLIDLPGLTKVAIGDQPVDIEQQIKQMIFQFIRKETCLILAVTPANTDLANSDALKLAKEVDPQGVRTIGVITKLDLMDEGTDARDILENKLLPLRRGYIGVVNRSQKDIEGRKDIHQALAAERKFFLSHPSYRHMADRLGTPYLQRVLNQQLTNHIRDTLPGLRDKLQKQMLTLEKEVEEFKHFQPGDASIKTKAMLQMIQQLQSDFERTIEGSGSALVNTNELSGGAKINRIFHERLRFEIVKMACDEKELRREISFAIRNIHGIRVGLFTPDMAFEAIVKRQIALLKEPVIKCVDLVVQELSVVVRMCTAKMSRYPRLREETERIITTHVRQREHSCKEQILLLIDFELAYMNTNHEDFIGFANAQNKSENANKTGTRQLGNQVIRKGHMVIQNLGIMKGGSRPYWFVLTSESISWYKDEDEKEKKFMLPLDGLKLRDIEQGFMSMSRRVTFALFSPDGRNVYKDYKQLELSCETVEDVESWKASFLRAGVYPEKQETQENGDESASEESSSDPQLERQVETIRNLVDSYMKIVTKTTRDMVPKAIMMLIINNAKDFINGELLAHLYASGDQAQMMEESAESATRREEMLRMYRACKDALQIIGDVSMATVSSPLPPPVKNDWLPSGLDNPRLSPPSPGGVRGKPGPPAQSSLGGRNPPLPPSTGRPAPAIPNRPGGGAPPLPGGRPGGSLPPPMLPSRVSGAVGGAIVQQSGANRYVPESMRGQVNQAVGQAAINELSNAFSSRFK
Kind of assay: co-sedimentation.

No constants are given. Whether binding was seen depends on the method and setting. Binding can be weak; no strength is given.

For the substance “Dock-SH3.2 (the second SH3 domain of Dock) (from UniProt Q8IPW2) (domain or fragment)”, the binding result is “binds”. For “Dock-SH3.3 (the third SH3 domain of Dock) (from UniProt Q8IPW2) (domain or fragment)” the value was “binds”; for “Drk-SH3.1 (the first SH3 domain of Drk) (from UniProt Q08012) (domain or fragment)”, “binds”; for “Drk-SH3.2 (the second SH3 domain of Drk) (from UniProt Q08012) (domain or fragment)”, “binds”. In the case of “SH3PX1-SH3 (the SH3 domain of SH3PX1) (from UniProt Q7KUD2) (domain or fragment)”, the binding result is “binds”.
